PubChem BioAssay AID652243 | Drosophila RNAi Screening Center | 2013
The deposit covers about 24,000 reagents; shown is an unselected part of those that have a named target and a result. In the full data, 246 (1%) were called active. 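Plates not normalised; calls are printed but the firefly/Renilla ratio behind them is not deposited; fold cut for lowering reported inconsistently.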 The raw values are shown without normalisation. Reagents against one gene are numbered here. Not given: the amount of reagent.

Screen: 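Fly genes required for human androgen receptor driven transcription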 (primary screen)
Cells: Drosophila S2R+ cells
Reagents: long dsRNA against Drosophila genes
Duration: 72 h (48 h, then 24 h hormone)
Conditions: synthetic androgen R1881 at 10 nM for 24 h
Measurement: 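Per-well raw luminescence of the androgen-driven firefly reporter and of the Renilla control, two replicates each, without normalisation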
Direction: firefly reporter light: higher = more light from androgen-responsive reporter; Renilla control light: higher = more constitutive control signal (cell number, transfection)
Hit rule: 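Hit when the log firefly-to-Renilla ratio dropped or increased by a fixed fold versus the mean of GFP or LacZ controls across duplicate plates; lowering cut given as 1.5 and as 3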
Meaning of the calls: active = hit: reporter lowered or raised; inactive = no hit

For Cpr47Ec, the entry reads firefly reporter light, replicate 1 = 4.31e5; firefly reporter light, replicate 2 = 3.32e5; Renilla control light, replicate 1 = 2.05e6; Renilla control light, replicate 2 = 1.84e6; inactive. Depletion of CG33769 resulted in: firefly reporter light, replicate 1 = 1.95e5; firefly reporter light, replicate 2 = 2.95e5; Renilla control light, replicate 1 = 2.71e6; Renilla control light, replicate 2 = 3.13e6; inactive. CG9014 scored firefly reporter light, replicate 1 = 3.10e5; firefly reporter light, replicate 2 = 2.41e5; Renilla control light, replicate 1 = 2.34e6; Renilla control light, replicate 2 = 2.30e6; inactive. Against Echs1, the values are firefly reporter light, replicate 1 = 99498; firefly reporter light, replicate 2 = 96470; Renilla control light, replicate 1 = 2.39e6; Renilla control light, replicate 2 = 2.39e6; inactive. With knock-down of CG34294 (retired record), the record shows firefly reporter light, replicate 1 = 1.05e6; firefly reporter light, replicate 2 = 6.52e5; Renilla control light, replicate 1 = 2.53e6; Renilla control light, replicate 2 = 2.18e6; inactive. Knock-down of CG30037 gave: firefly reporter light, replicate 1 = 2.33e5; firefly reporter light, replicate 2 = 2.09e5; Renilla control light, replicate 1 = 1.03e6; Renilla control light, replicate 2 = 1.09e6; inactive.

After knock-down of CG15196 #1, the screen gave firefly reporter light, replicate 1 = 7.09e5; firefly reporter light, replicate 2 = 5.67e5; Renilla control light, replicate 1 = 3.28e6; Renilla control light, replicate 2 = 3.93e6; inactive. Depletion of CG15196 #2 came out at: firefly reporter light, replicate 1 = 5.64e5; firefly reporter light, replicate 2 = 6.13e5; Renilla control light, replicate 1 = 7.48e5; Renilla control light, replicate 2 = 6.49e5; inactive. Against Nep5 the deposit lists firefly reporter light, replicate 1 = 64277; firefly reporter light, replicate 2 = 92511; Renilla control light, replicate 1 = 5.78e5; Renilla control light, replicate 2 = 5.31e5; inactive. Against Sxl #1 the deposit lists firefly reporter light, replicate 1 = 1.09e5; firefly reporter light, replicate 2 = 94679; Renilla control light, replicate 1 = 8.92e5; Renilla control light, replicate 2 = 6.12e5; inactive. Sxl #2 showed firefly reporter light, replicate 1 = 2.90e5; firefly reporter light, replicate 2 = 2.97e5; Renilla control light, replicate 1 = 2.18e6; Renilla control light, replicate 2 = 2.77e6; inactive. Sxl #3 scored firefly reporter light, replicate 1 = 1.23e6; firefly reporter light, replicate 2 = 8.84e5; Renilla control light, replicate 1 = 2.03e6; Renilla control light, replicate 2 = 1.57e6; inactive.

Sxl #4 scored firefly reporter light, replicate 1 = 3.01e5; firefly reporter light, replicate 2 = 3.75e5; Renilla control light, replicate 1 = 8.49e5; Renilla control light, replicate 2 = 1.05e6; inactive. After knock-down of CG43736 #1, the record shows firefly reporter light, replicate 1 = 7.40e5; firefly reporter light, replicate 2 = 7.81e5; Renilla control light, replicate 1 = 1.54e6; Renilla control light, replicate 2 = 2.17e6; inactive. CG43736 #2 gave firefly reporter light, replicate 1 = 3.51e5; firefly reporter light, replicate 2 = 3.67e5; Renilla control light, replicate 1 = 2.37e6; Renilla control light, replicate 2 = 2.29e6; inactive. CG43736 #3 showed firefly reporter light, replicate 1 = 3.33e5; firefly reporter light, replicate 2 = 3.34e5; Renilla control light, replicate 1 = 6.86e5; Renilla control light, replicate 2 = 6.26e5; inactive. CG43736 #4 showed firefly reporter light, replicate 1 = 6.18e5; firefly reporter light, replicate 2 = 6.05e5; Renilla control light, replicate 1 = 1.17e6; Renilla control light, replicate 2 = 1.24e6; inactive. Knock-down of Snoo #1 came out at: firefly reporter light, replicate 1 = 8.07e5; firefly reporter light, replicate 2 = 8.19e5; Renilla control light, replicate 1 = 1.67e6; Renilla control light, replicate 2 = 1.73e6; inactive.

With knock-down of Snoo #2, the screen gave firefly reporter light, replicate 1 = 2.36e5; firefly reporter light, replicate 2 = 2.05e5; Renilla control light, replicate 1 = 1.70e6; Renilla control light, replicate 2 = 1.53e6; inactive. After knock-down of ppk19 the results were firefly reporter light, replicate 1 = 1.83e5; firefly reporter light, replicate 2 = 1.75e5; Renilla control light, replicate 1 = 2.01e6; Renilla control light, replicate 2 = 2.27e6; inactive. After knock-down of Gr98d #1 the results were firefly reporter light, replicate 1 = 2.38e5; firefly reporter light, replicate 2 = 1.82e5; Renilla control light, replicate 1 = 2.41e6; Renilla control light, replicate 2 = 2.80e6; inactive. For Gr98d #2, the entry reads firefly reporter light, replicate 1 = 6.19e5; firefly reporter light, replicate 2 = 5.97e5; Renilla control light, replicate 1 = 4.62e5; Renilla control light, replicate 2 = 5.58e5; inactive.

Already shown: an excerpt of the list.
CG43736 #4: firefly reporter light, replicate 1 = 6.18e5; firefly reporter light, replicate 2 = 6.05e5; Renilla control light, replicate 1 = 1.17e6; Renilla control light, replicate 2 = 1.24e6; call = inactive
Snoo #1: firefly reporter light, replicate 1 = 8.07e5; firefly reporter light, replicate 2 = 8.19e5; Renilla control light, replicate 1 = 1.67e6; Renilla control light, replicate 2 = 1.73e6; call = inactive
Snoo #2: firefly reporter light, replicate 1 = 2.36e5; firefly reporter light, replicate 2 = 2.05e5; Renilla control light, replicate 1 = 1.70e6; Renilla control light, replicate 2 = 1.53e6; call = inactive
